From publication PMC4806301 come the findings set out here.

Sequences of proteins named here, by UniProt entry; tags and fusion partners are left off.
UniProt O00429: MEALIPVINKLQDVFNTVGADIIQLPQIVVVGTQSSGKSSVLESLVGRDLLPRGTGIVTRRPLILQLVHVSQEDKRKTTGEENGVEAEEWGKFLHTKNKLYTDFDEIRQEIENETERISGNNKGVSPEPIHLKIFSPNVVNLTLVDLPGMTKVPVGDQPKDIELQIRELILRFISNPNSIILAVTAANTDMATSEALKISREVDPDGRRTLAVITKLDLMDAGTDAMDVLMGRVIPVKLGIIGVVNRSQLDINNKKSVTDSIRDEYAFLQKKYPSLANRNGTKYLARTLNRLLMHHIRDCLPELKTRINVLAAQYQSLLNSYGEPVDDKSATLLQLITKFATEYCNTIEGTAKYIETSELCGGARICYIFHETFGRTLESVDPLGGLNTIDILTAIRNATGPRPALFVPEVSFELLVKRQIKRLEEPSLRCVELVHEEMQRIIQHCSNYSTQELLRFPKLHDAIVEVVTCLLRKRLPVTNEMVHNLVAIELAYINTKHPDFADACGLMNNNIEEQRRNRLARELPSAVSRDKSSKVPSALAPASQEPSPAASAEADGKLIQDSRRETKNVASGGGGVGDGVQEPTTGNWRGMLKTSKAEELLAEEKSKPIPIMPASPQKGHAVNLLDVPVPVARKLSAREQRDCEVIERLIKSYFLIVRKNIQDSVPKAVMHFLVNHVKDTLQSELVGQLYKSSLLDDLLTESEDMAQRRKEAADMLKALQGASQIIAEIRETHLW

No constants are given. Whether binding was seen depends on the method and setting. In cells and extracts the contact can be indirect.

This test deals with NS5A of the HCV sub-genomic replicon in JL377-2 cells (hepatitis C virus (sub-genotype 1b, isolate Con1)) (UniProt Q9WMX2). Description: co-IP; Huh-7 or JL377-2 (HCV replicon) cell lysates in RIPA buffer (20 mM Tris pH 8.0, 100 mM NaCl, 0.1% NP-40) with 1 mM MgCl and 0.1 mM GDP or GTPγS; immunoprecipitation with α-NS5A antibody (anti-HA as control) and protein A-sepharose, at least 4 hours at 4 °C; blots for endogenous Drp1 and mitofusin 2. A general note: A replicon is a self-replicating genome or part of one, used to study replication in cells.

For “Dynamin-related protein 1 (Drp1), endogenous (from UniProt O00429 1-736)”, the binding result was “no binding”.
